{"source": "PubChem BioAssay AID2685", "about": "(National Center for Advancing Translational Sciences (NCATS), 2010)", "assay": "qHTS Assay for Lipid Storage Modulators in Drosophila S3 Cells;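 for cell number change: cells counted by Cell Tracker Red CMTPX staining in the red channel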", "conditions": "BODIPY lipid droplet fluorescence, 18-24 h; for cell number change: measured here: cell count max response, cells fed with added oleic acid", "excerpt": "NIH Molecular Libraries Probe Production Centers Network [MLPCN] NIH Chemical Genomics Center [NCGC] MLPCN Grant: 1 R03 MH085686-01 Assay Submitter (PI): Beller, Mathias; Max-Planck-Institut fur Biophysikalische Chemie NCGC Assay Overview: Storing lipids as a reservoir for energy or the anabolism of elementary metabolites is a common feature of probably all cells and is conserved from bacteria to humans. The universal cellular lipid storage organelle is the so-called lipid storage droplet (LD). Although ubiquitous, LDs share a simple structure composed of a hydrophobic core that harbors the storage lipids, which is shielded by a droplet-specific phospholipid monolayer to which proteins are attached. The current model of LD biogenesis involves an incorporation of the lipid core into the membrane leaflets of the endoplasmic reticulum (ER) followed by a subsequent budding-like maturation of a LD, which ultimately pinches off. Once released, LD volume can increase by localized lipogenesis or fusion of existing droplet. Storage lipids are re-mobilized enzymatically by lipase activity. Lipase regulation in the adipocyte is heavily studied and involves multiple components including catecholamine signaling, the LD-associated proteins Perilipin and comparative gene identification (CGI-58) and at least two lipases named hormone sensitive lipase (HSL) and adipocyte triglyceride lipase (ATGL). LD regulation outside of the adipocyte is poorly understood and only few components are known. However, there is an urgent need to learn more about ectopic fat depots as mislocalized storage of lipids, for example in the liver or muscle, is an eminent health problem associated with insulin resistance or the metabolic syndrome. We developed a laser-scanning cytometer assay to enable 1,536-well screening and combined the results of the small molecules screen with an RNAi database based on lipid storage.\nTriacsin C (Sigma-Aldrich T-4540), an inhibitor of long-chain fatty acyl CoA synthetase that blocks synthesis of triglycerides, was used as a positive control for lipid under-storage. A total of 23 nL of compound solution of different concentrations were transferred to the assay plates using a Kalypsys pin tool equipped with a 1,536-pin array containing 10-nL slotted pins (FP1S10, 0.457-mm diameter, 50.8 mm long; V&P Scientific). One microliter of oleic acid (400 uM) was added, and the plate was lidded with stainless steel rubber gasket lined lids containing pinholes. […] Fluorescence was detected by excitation of the fluorophores with a 488-nm laser on an Acumen Explorer (TTP Lab Tech). The total intensity in channel 2 (500-530 nm) reflected lipid droplet accumulation. Cells were detected using channel 3 (575-640 nm) with 5-um width and 100-um depth filters. The ratio of the number of objects in PMT channel 2 over the number of objects in PMT channel 3 was also calculated. Percent activity was computed relative to an internal control (100% inhibited lipid droplet deposition due to the presence of 20 uM Triacsin C), which was added to 32 wells/plate.", "key": {"[1]": {"conditions": "measured here: lipid fluorescence (Fed channel) AC50, cells fed with added oleic acid"}}, "note": "The list shows a part of the results. These are further read-outs of the screen, such as a control signal, another cell line or another target. No call is given for them. Most of these compounds were active or inconclusive in the main read-out, so they are no random draw. The note in brackets gives the kind of curve behind each potency; many fits are weak."}
{"molecule": "CC(c1ccccc1)N1C(=O)c2ccc(C(=O)Nc3ccc(Br)cc3C(=O)O)cc2C1=O", "note": "(stereo not drawn)", "values": [{"measurement": "cell number change", "value": 14.6, "unit": "%"}, {"measurement": "AC50", "setting": "[1]", "value": "29.1 µM [rising, single point]"}]}
{"molecule": "O=C(Nc1ccc(C(=O)O)cc1)/C(=C\\C=C\\c1ccccc1)NC(=O)c1cccc(Br)c1", "values": [{"measurement": "cell number change", "value": -20.7, "unit": "%"}, {"measurement": "AC50", "setting": "measured here: cell number channel AC50, cells fed with added oleic acid", "value": "2.91 µM [rising, partial curve, poor fit]"}]}
{"molecule": "CCOc1cc(/C=C2\\C(=O)N(c3cccc(C(=O)O)c3)N=C2C(F)(F)F)ccc1OCC(=O)Nc1ccccc1OC", "values": [{"measurement": "cell number change", "value": -20.8, "unit": "%"}, {"measurement": "AC50", "setting": "[1]", "value": "29.1 µM [falling, single point]"}]}
{"molecule": "CCCOc1ccc(C2C(C(=O)c3cc4ccccc4o3)=C(O)C(=O)N2c2cc(C)on2)cc1", "note": "(stereo not drawn)", "values": [{"measurement": "cell number change", "value": -1.49, "unit": "%"}, {"measurement": "AC50", "setting": "[1]", "value": "20.6 µM [rising, single point]"}]}
